Assay results from patent US20220023346A1.
Results are given in words; binding and its absence hold for the method and conditions named. Some binding calls cover weakened binding; strength is not graded here.

Protein sequences, listed by entry. Tags and fused reporters are not part of them. Residues count along the entry.
UniProt Q9NYJ7, residues 27-492: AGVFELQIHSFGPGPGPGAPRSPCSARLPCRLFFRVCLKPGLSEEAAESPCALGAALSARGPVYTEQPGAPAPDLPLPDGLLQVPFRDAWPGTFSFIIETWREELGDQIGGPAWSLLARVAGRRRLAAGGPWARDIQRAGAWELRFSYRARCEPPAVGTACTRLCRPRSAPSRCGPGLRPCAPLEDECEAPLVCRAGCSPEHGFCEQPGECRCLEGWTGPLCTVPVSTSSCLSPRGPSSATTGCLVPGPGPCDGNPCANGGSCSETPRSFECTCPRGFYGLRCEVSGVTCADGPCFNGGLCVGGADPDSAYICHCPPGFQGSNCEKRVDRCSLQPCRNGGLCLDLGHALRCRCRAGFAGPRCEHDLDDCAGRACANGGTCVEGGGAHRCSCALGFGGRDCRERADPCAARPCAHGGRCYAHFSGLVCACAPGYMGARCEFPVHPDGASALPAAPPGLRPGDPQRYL

Key:
[1] = biological target: Flag tagged recombinant DLL3 (Adipogen) (UniProt Q9NYJ7); experiment: flow cytometry; staining of CAR T cells with soluble DLL3 (FIG. 2A bottom panels, FIG. 2E)
[2] = biological target: Flag tagged recombinant DLL3 (Adipogen) (UniProt Q9NYJ7); experiment: flow cytometry; staining of CAR T cells with Flag tagged recombinant DLL3 and PE anti-Flag antibodies (FIG. 5B)
[3] = biological target: Flag tagged recombinant DLL3 (Adipogen) (UniProt Q9NYJ7); experiment: flow cytometry; CAR T cells incubated with 1 ug/ml Flag tagged recombinant DLL3, then PE anti-Flag antibodies

binding [1]: binds | binding [2]: binds | binding [3]: binds
B1: DLL3 CAR 10G1-K, conventional (comprising wildtype CD3ζ ITAM-containing domain), expressed on primary human T cells (protein, not shown: large carriers)
chain: EVQLLESGGGLVQPGGSLRLSCAASGFTFSSYAMNWVRQAPGKGLEWVSTISGSGGSTYYADSVKGRFTISRDNSKNTLYLQMNSLRAEDTAVFYCAIDPEYYDILTGGDYWGQGTLVTVSSGGGGSGGGGSGGGGSGGGGSDIQMTQSPSAMSASVGDRVTITCRASQGISNYLAWFQQKPGKVPKRLIYAASSLQSGVPSRFSGSGSGTEFTLTISSLQPEDFATYFCLQHDSFPLTFGGGTKVEIK
